# The supplement of paper PMC12819154, “High-throughput peptide-centric local stability assay extends protein–ligand identification to membrane proteins, tissues and bacteria” (Nature Structural & Molecular Biology, 2025)
# Sequences of proteins named here, by UniProt entry; tags and fusion partners are left off. A change or cut given only in a name is not applied to a line headed by its entry.
# UniProt Q13416: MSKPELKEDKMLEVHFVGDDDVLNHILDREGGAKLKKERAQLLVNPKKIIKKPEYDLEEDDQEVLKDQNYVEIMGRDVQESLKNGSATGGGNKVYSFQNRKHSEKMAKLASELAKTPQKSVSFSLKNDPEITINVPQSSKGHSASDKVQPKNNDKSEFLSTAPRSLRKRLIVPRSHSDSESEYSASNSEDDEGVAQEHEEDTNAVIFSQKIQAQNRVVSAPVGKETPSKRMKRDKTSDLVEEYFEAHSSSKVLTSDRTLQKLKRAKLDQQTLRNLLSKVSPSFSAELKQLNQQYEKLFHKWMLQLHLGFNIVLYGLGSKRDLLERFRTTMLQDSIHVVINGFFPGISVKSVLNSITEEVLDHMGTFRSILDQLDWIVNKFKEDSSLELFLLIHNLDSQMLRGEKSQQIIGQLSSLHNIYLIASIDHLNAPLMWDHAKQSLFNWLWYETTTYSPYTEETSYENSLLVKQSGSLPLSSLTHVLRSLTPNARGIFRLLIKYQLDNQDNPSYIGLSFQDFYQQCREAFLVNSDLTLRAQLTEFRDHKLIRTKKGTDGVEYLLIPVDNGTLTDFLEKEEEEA
# UniProt Q13422: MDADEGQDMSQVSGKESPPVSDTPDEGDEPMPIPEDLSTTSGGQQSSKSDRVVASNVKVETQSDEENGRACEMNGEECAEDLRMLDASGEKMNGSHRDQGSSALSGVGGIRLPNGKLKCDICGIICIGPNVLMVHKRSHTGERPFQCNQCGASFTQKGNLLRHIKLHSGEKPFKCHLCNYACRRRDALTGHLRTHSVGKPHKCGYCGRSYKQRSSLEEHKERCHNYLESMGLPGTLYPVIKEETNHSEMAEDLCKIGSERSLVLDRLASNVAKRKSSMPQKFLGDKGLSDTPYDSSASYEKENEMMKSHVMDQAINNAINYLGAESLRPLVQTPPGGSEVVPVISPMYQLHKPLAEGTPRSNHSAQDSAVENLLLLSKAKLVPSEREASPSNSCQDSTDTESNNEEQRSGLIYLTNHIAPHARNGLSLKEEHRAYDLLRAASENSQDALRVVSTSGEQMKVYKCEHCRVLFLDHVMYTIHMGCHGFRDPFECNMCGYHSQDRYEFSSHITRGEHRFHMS
# UniProt Q15020: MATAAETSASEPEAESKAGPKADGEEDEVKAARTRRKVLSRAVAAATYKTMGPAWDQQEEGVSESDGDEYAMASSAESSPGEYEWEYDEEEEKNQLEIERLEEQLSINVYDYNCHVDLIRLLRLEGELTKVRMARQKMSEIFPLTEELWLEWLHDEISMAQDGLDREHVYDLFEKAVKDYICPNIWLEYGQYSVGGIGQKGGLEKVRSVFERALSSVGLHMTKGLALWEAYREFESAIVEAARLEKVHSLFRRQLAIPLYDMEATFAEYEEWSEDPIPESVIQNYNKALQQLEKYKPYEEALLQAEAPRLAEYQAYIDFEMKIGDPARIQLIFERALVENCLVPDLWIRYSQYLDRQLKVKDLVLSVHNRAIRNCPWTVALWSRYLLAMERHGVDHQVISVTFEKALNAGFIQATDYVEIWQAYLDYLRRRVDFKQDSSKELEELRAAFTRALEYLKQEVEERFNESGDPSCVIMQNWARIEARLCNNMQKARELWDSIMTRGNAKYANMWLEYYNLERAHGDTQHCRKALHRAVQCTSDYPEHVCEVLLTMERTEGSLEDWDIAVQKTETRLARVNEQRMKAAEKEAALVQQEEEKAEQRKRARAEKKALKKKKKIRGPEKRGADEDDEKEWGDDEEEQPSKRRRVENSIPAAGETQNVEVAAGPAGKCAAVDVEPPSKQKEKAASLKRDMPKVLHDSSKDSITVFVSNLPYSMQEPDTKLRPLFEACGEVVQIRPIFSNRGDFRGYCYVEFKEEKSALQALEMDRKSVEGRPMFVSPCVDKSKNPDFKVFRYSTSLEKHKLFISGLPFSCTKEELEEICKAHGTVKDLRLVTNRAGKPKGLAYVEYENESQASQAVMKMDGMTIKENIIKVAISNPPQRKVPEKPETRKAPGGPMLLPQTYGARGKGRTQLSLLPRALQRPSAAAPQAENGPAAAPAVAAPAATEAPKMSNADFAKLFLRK
# UniProt Q13487, whole entry: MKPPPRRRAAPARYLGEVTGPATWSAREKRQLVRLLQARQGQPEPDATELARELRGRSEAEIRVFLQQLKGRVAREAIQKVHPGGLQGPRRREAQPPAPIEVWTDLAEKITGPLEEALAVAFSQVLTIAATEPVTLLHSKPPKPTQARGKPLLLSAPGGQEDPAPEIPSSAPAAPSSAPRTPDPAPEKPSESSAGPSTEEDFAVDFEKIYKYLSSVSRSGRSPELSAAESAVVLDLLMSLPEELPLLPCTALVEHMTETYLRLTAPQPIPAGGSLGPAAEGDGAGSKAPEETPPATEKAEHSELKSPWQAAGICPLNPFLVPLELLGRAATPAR
# UniProt Q13838, whole entry: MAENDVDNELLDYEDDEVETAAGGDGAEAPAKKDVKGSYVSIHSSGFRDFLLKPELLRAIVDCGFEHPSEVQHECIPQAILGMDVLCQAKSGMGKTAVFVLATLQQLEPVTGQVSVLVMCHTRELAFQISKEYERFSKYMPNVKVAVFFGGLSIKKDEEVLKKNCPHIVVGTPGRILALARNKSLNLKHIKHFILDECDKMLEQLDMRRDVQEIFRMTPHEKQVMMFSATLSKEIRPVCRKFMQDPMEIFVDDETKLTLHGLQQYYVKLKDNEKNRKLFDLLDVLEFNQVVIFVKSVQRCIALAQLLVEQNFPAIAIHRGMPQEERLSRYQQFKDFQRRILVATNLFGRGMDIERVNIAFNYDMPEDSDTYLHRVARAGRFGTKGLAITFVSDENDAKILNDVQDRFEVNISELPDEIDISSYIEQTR
# UniProt Q13435: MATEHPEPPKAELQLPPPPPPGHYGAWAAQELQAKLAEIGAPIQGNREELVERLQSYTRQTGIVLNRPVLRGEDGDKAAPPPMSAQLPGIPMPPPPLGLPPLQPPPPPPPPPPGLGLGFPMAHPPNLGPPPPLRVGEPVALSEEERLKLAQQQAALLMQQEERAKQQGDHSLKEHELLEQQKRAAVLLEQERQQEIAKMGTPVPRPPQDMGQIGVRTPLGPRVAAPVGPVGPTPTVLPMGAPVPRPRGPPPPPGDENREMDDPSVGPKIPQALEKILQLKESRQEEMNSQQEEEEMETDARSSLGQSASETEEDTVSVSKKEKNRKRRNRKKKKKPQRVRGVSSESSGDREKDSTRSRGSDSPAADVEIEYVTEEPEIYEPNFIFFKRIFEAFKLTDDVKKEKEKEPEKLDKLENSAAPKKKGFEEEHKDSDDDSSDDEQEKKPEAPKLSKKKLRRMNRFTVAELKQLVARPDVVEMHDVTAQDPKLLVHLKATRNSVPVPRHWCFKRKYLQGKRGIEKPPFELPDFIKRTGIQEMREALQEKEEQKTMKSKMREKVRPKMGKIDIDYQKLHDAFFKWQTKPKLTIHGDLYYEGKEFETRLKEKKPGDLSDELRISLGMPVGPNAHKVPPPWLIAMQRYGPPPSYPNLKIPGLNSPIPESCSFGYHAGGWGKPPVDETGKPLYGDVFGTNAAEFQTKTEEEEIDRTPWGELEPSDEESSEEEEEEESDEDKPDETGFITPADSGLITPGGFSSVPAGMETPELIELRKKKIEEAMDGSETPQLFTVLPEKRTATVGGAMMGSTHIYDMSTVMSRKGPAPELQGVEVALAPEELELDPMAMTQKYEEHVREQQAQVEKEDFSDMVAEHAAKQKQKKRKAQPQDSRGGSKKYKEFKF
# UniProt Q14451, whole entry: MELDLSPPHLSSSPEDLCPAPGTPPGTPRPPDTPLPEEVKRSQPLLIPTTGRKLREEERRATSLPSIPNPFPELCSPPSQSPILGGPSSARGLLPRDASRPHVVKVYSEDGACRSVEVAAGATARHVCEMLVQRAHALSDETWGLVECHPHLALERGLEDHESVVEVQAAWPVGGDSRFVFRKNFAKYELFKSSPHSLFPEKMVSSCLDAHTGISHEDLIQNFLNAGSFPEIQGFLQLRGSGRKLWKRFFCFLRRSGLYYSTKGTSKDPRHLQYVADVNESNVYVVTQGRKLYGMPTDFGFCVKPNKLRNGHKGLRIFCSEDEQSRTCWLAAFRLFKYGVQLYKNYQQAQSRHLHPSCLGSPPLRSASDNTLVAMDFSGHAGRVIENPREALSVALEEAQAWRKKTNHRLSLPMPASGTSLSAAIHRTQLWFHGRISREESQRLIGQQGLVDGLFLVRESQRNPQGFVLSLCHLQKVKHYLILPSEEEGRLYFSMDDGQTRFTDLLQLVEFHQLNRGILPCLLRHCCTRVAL
# UniProt Q13185: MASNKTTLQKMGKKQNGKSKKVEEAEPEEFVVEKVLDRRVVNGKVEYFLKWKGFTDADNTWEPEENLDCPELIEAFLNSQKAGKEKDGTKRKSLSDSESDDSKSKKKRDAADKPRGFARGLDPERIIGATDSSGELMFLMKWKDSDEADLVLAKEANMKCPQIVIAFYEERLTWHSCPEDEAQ
# UniProt Q14542: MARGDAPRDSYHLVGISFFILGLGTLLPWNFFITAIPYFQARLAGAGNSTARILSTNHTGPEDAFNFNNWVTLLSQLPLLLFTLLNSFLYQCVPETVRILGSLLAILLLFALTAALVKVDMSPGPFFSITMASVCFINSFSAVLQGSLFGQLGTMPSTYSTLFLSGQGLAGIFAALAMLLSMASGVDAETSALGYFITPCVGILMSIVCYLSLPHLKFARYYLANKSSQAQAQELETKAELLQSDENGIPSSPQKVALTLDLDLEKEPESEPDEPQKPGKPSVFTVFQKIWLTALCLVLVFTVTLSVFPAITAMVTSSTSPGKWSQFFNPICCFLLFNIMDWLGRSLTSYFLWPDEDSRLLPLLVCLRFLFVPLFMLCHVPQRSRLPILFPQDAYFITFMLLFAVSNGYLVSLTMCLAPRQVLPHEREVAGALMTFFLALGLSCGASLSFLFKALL
# UniProt Q15019: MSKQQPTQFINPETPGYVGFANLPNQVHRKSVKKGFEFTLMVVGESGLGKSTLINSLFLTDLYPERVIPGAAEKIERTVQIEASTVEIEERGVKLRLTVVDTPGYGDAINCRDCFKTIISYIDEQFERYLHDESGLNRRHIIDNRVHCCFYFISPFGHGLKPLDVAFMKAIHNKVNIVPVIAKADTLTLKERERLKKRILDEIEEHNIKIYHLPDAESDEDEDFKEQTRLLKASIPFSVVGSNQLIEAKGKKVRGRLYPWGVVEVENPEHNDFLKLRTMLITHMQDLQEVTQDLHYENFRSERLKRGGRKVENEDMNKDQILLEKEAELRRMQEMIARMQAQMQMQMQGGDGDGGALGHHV
# UniProt Q15008: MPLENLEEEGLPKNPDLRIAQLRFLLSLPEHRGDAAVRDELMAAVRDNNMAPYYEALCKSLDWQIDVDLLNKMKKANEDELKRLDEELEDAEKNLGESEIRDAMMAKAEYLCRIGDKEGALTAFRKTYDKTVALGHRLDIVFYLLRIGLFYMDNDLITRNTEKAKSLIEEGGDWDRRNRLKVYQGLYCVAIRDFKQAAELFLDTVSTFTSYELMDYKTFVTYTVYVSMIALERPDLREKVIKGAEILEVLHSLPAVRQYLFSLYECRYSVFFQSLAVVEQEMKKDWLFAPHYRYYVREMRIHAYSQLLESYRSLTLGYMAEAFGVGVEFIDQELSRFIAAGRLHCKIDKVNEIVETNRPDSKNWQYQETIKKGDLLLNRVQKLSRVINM
# UniProt Q13572: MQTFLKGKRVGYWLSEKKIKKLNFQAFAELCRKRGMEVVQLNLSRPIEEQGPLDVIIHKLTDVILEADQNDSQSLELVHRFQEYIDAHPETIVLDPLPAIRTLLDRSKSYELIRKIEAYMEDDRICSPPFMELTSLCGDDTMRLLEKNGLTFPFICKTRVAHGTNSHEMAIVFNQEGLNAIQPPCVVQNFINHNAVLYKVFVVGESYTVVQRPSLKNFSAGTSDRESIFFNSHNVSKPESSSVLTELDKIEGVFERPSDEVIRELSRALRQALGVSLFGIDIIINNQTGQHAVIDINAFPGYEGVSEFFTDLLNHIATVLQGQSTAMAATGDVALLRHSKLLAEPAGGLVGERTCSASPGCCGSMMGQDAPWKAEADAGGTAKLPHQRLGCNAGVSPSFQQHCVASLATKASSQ
# UniProt Q13356: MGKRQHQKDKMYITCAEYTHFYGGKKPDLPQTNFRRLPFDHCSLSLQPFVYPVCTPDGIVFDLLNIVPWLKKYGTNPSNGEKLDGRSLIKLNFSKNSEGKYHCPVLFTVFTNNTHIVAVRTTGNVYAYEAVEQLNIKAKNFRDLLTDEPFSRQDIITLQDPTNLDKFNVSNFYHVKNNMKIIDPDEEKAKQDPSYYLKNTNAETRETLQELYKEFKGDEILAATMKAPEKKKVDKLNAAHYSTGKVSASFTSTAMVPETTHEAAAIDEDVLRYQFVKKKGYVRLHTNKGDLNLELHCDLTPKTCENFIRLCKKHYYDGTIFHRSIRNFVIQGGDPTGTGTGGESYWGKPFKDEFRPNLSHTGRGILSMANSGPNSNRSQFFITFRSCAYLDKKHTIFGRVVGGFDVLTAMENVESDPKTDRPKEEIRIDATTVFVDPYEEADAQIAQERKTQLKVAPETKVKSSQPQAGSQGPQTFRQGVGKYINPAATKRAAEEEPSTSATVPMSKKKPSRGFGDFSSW
# The list shows a part of the results. Small differences around the control level are noise.
# Compound: CN[C@@H]1C[C@H]2O[C@@](C)([C@@H]1OC)n1c3ccccc3c3c4c(c5c6ccccc6n2c5c31)C(=O)NC4 [staurosporine]
# Experiment: log2 fold change of tryptic peptide abundance, ligand vs vehicle (limited proteolysis) (log2 ratio); higher = more trypsin-susceptible (destabilized)
# Settings: ligand concentration: 20 uM; sample: K562 cleared lysate; digestion: 4 min, 22 C (HT-PELSA RT4min, Orbitrap Astral)
row,Target,log2 fold change
1,"UniProt Q13416 (peptide sequence: DQNYVEIMGR, peptide start residue: 67)",-0.506
2,"IKZF1 (peptide sequence: NGLSLKEEHR, peptide start residue: 424) (UniProt Q13422)",0.339
3,"STIM1 (peptide sequence: DLTHSDSESSLHMSDR, peptide start residue: 515) (UniProt Q13586)",-0.162
4,"PDCL (peptide sequence: FKQLETEQREEQCR, peptide start residue: 69) (UniProt Q13371)",-0.23
5,"UniProt Q13247 (peptide sequence: LIVENLSSRCSWQDLK, peptide start residue: 106)",-0.441
6,"SART3 (peptide sequence: AGPKADGEEDEVK, peptide start residue: 18) (UniProt Q15020)",-0.237
7,"LARS2 (peptide sequence: TALINFLVQD, peptide start residue: 894) (UniProt Q15031)",-0.169
8,"FRG1 (peptide sequence: SKTAGEEEMIK, peptide start residue: 169) (UniProt Q14331)",-0.375
9,"CUL1 (peptide sequence: MYNLVSR, peptide start residue: 322) (UniProt Q13616)",0.438
10,"SNAPC2 (peptide sequence: VFLQQLK, peptide start residue: 64) (UniProt Q13487)",0.147
11,"DDX39B (peptide sequence: NCPHIVVGTPGR, peptide start residue: 164) (UniProt Q13838)",0.391
12,"SKP2 (peptide sequence: LLSQGVIAFR, peptide start residue: 155) (UniProt Q13309)",-0.752
13,"GTF2H2 (peptide sequence: VFEHHGQVR, peptide start residue: 46) (UniProt Q13888)",0.217
14,"MAD2L1BP (peptide sequence: NCGEDWFRPK, peptide start residue: 220) (UniProt Q15013)",-0.466
15,"SF3B2 (peptide sequence: RGIEKPPFELPDFIK, peptide start residue: 515) (UniProt Q13435)",-0.334
16,"DIP2A (peptide sequence: ELAHLEDSDQAR, peptide start residue: 971) (UniProt Q14689)",0.631
17,"UBAP2L (peptide sequence: GNWEQPQNQNQTQHK, peptide start residue: 12) (UniProt Q14157)",-0.139
18,"ZNF460 (peptide sequence: HFNIHTGEKPYECLQCGK, peptide start residue: 410) (UniProt Q14592)",-0.451

row,Target,log2 fold change
1,"KIF22 (peptide sequence: TVTGAKPLKK, peptide start residue: 519) (UniProt Q14807)",0.501
2,"KLF1 (peptide sequence: APDAFVGPALAPAPAPEPK, peptide start residue: 144) (UniProt Q13351)",0.59
3,"FHL3 (peptide sequence: HFHEGCFRCCR, peptide start residue: 60) (UniProt Q13643)",-0.216
4,"EFR3A (peptide sequence: LTFYAVSAPEKLDR, peptide start residue: 40) (UniProt Q14156)",0.762
5,"UniProt Q14451 (peptide sequence: SQPLLIPTTGR, peptide start residue: 42)",0.264
6,"DDX10 (peptide sequence: SIVFFSSCK, peptide start residue: 316) (UniProt Q13206)",-0.152
7,"RBM39 (peptide sequence: VLGVPIIVQASQAEKNR, peptide start residue: 218) (UniProt Q14498)",0.554
8,"CBX3 (peptide sequence: SLSDSESDDSKSK, peptide start residue: 93) (UniProt Q13185)",-0.254
9,"SETDB1 (peptide sequence: ELLCCCGAIECR, peptide start residue: 1276) (UniProt Q15047)",0.665
10,"SLC29A2 (peptide sequence: SSQAQAQELETK, peptide start residue: 227) (UniProt Q14542)",0.75
11,"UniProt Q14289 (peptide sequence: YLPEDFMESLKEDR, peptide start residue: 135)",-0.236
12,"DCTN1 (peptide sequence: AKEEQQDDTVYMGK, peptide start residue: 1234) (UniProt Q14203)",-0.193
13,"UniProt Q15019 (peptide sequence: ASIPFSVVGSNQLIEAK, peptide start residue: 233)",-0.238
14,"PSMD6 (peptide sequence: EGALTAFRK, peptide start residue: 118) (UniProt Q15008)",0.542
15,"TUBB3 (peptide sequence: LATPTYGDLNHLVSATMSGVTTSLR, peptide start residue: 217) (UniProt Q13509)",0.303
16,"ITPK1 (peptide sequence: VFVVGESYTVVQRPSLK, peptide start residue: 200) (UniProt Q13572)",0.53
17,"PPIL2 (peptide sequence: ETLQELYK, peptide start residue: 206) (UniProt Q13356)",-0.215

# As a short view, some entries already given.
row,Target,log2 fold change
5,"UniProt Q14451 (peptide sequence: SQPLLIPTTGR, peptide start residue: 42)",0.264
6,"DDX10 (peptide sequence: SIVFFSSCK, peptide start residue: 316) (UniProt Q13206)",-0.152
7,"RBM39 (peptide sequence: VLGVPIIVQASQAEKNR, peptide start residue: 218) (UniProt Q14498)",0.554
8,"CBX3 (peptide sequence: SLSDSESDDSKSK, peptide start residue: 93) (UniProt Q13185)",-0.254
9,"SETDB1 (peptide sequence: ELLCCCGAIECR, peptide start residue: 1276) (UniProt Q15047)",0.665
10,"SLC29A2 (peptide sequence: SSQAQAQELETK, peptide start residue: 227) (UniProt Q14542)",0.75
11,"UniProt Q14289 (peptide sequence: YLPEDFMESLKEDR, peptide start residue: 135)",-0.236
12,"DCTN1 (peptide sequence: AKEEQQDDTVYMGK, peptide start residue: 1234) (UniProt Q14203)",-0.193
13,"UniProt Q15019 (peptide sequence: ASIPFSVVGSNQLIEAK, peptide start residue: 233)",-0.238
14,"PSMD6 (peptide sequence: EGALTAFRK, peptide start residue: 118) (UniProt Q15008)",0.542
